Values are raw readings; no control value is given beside them.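 For antimicrobials the highest concentration approximated the MIC. Most other compounds topped out at 500 µM, and known inducer-like compounds reached up to 1 mM. Inocula for deletion strains were tenfold smaller, and any well growing below 10% of the overall median was considered non-growing.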
System: Escherichia coli BW25113
Assay: growth (OD600 area under curve, 8 h) (OD600 x h); higher = more growth
Method: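 E. coli BW25113 reporter strains (wild type, ΔmarA, ΔsoxS, Δrob, each carrying one of 8 lux reporter plasmids) were grown in 40 µl LB in 384-well plates at 37°C, 800 rpm, with each compound at 4 two-fold concentrations, in biological duplicates. Growth is the baseline-corrected OD600 area under the curve over 8 h (0-8 h WT, 1-9 h deletion strains).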

CC[n+]1c(-c2ccccc2)c2cc(N)ccc2c2ccc(N)cc21 [Ethidiumbromide]
growth
Settings	reporter plasmid: EVC	reporter plasmid: acrABp	reporter plasmid: marRABp	reporter plasmid: micFp	reporter plasmid: ompFp	reporter plasmid: robp	reporter plasmid: soxSp	reporter plasmid: tolCp
24.6 µg/ml, genetic background: wild type	3.15	2.62	3.26	3.03	2.64	3.13	3.09	3.13
24.6 µg/ml, genetic background: ΔmarA	3.37	4.02	3.61	3.06	3.34	3.69	3.1	2.81
24.6 µg/ml, genetic background: Δrob	2.99	2.94	3.05	2.9	2.4	2.61	3.05	3.01
24.6 µg/ml, genetic background: ΔsoxS	3.25	3.23	3.15	2.86	3.16	2.93	3.16	3.03
49.3 µg/ml, genetic background: wild type	3.01	2.18	2.58	2.817	2.24	2.71	2.93	2.75
49.3 µg/ml, genetic background: ΔmarA	2.8	3.34	3.006	2.85	3.02	3.37	2.8	2.475
49.3 µg/ml, genetic background: Δrob	2.72	2.29	2.53	2.79	1.92	2.05	2.86	2.71
49.3 µg/ml, genetic background: ΔsoxS	3.05	2.76	2.61	2.57	2.58	2.39	2.75	2.94
98.6 µg/ml, genetic background: wild type	2.5	1.88	2.13	2.29	1.89	2.36	2.67	2.22
98.6 µg/ml, genetic background: ΔmarA	1.99	2.17	2.34	2.22	2.06	2.58	2.5	1.79
98.6 µg/ml, genetic background: Δrob	2.33	1.85	1.69	1.96	1.2	1.47	2.44	1.84
98.6 µg/ml, genetic background: ΔsoxS	2.46	2.23	2.47	1.87	1.75	1.71	2.18	2.57
197.1 µg/ml, genetic background: wild type	0.531	-0.307	0.162	0.237	0.0897	0.139	0.8144	0.715
197.1 µg/ml, genetic background: ΔmarA	0.151	-0.104	-0.047	0.112	-0.12	-0.0125	0.333	-0.000135
197.1 µg/ml, genetic background: Δrob	-0.0388	-0.0215	-0.0264	-0.0746	-0.0831	-0.0599	0.277	0.0548
197.1 µg/ml, genetic background: ΔsoxS	0.348	-0.0331	0.00222	-0.0598	0.0216	-0.0689	-0.0182	0.374

NC1CONC1=O (stereo unspecified) [Cycloserine D]
growth
Settings	reporter plasmid: EVC	reporter plasmid: acrABp	reporter plasmid: marRABp	reporter plasmid: micFp	reporter plasmid: ompFp	reporter plasmid: robp	reporter plasmid: soxSp	reporter plasmid: tolCp
1 µg/ml, genetic background: wild type	3.09	3.44	3.39	3.08	3.42	3.54	3.186	3.215
1 µg/ml, genetic background: ΔmarA	3.38	4.33	4	3.28	3.76	4.2	3.36	3.16
1 µg/ml, genetic background: Δrob	3.12	3.35	3.57	3.25	2.96	2.93	2.97	3.29
1 µg/ml, genetic background: ΔsoxS	3.37	3.36	3.36	2.89	3.21	3.43	3.25	3.21
1.9 µg/ml, genetic background: wild type	2.707	3.46	3.34	3.11	3.279	3.463	2.99	3.175
1.9 µg/ml, genetic background: ΔmarA	3.18	4.24	3.78	3.32	3.68	4.02	3.12	3.08
1.9 µg/ml, genetic background: Δrob	2.7	2.95	3.48	2.97	2.69	2.8	2.79	3.05
1.9 µg/ml, genetic background: ΔsoxS	3.12	3.12	3.11	2.69	3.15	3.18	3.08	2.83
3.8 µg/ml, genetic background: wild type	2.91	3.26	3.34	3	3.27	3.387	3.05	3.061
3.8 µg/ml, genetic background: ΔmarA	3.04	3.91	3.66	3.18	3.62	4.01	3.21	3.06
3.8 µg/ml, genetic background: Δrob	3.07	2.868	3.32	3	2.76	2.7	2.741	3.19
3.8 µg/ml, genetic background: ΔsoxS	3.24	3.36	3.23	2.88	3.17	3.25	3.29	3.03
7.7 µg/ml, genetic background: wild type	2.586	3.14	2.76	2.88	2.727	3.04	2.9	2.99
7.7 µg/ml, genetic background: ΔmarA	2.98	3.47	3.266	2.97	3.26	3.72	2.83	2.89
7.7 µg/ml, genetic background: Δrob	2.9	2.74	3.07	2.93	2.42	2.5	2.69	3.07
7.7 µg/ml, genetic background: ΔsoxS	3.03	3	2.96	2.6	2.69	2.84	2.98	2.93
